Measurements reported in PMC13233068, “HSD17B7 is required for the function of sensory hair cells by regulating cholesterol synthesis” (eLife, 2026).
Results are given in words; binding and its absence hold for the method and conditions named. In cells and extracts the contact can be indirect. A yes stands for co-enrichment or nearness to the bait. Other partners may have been found. Where a sequence is shown, tags or fusion partners need not be part of it.

Biological target: T1, Flag-tagged HSD17B7 (human) (UniProt P56937)
T1 sequence: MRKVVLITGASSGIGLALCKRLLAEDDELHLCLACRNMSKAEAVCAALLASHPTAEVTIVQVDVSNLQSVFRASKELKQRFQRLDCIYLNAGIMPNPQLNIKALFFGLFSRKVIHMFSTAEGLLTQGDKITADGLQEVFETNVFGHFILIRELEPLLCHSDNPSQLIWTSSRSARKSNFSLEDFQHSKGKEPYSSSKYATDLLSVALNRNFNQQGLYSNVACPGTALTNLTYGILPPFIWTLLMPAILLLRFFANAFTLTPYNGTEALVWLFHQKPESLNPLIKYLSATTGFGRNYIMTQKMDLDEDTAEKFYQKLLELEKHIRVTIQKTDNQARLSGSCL
Experiment: affinity purification with mass spectrometry; lysates of HEI-OC1 cells transfected with pCMV-Flag, pCMV-Flag-HSD17B7 or pCMV-Flag-HSD17B7^E182*, anti-Flag beads overnight at 4°C, washed three times with lysis buffer, nano-LC-MS/MS

binding: binds
B1: RER1 (endogenous, HEI-OC1 cells) (protein, UniProt Q9CQU3 1-196)
chain: MSEGDSVGDSVHGKPSVVYRFFSRLGQIYQSWLDKSTPYTAVRWVVTLGLSFVYMIRVYLLQGWYIVTYALGIYHLNLFIAFLSPKVDPSLMEDSDDGPSLPTKQNEEFRPFIRRLPEFKFWHAATKGILVAMICTFFEAFNVPVFWPILVMYFIMLFCITMKRQIKHMIKYRYIPFTHGKRRYKGKEDVGKTFAS
